Consider one molecule from patent publication US20260266848A1, “COMPOSITIONS AND METHODS FOR DIAGNOSING AND TREATING DYSTONIA” (Duke University, priority 2023, published 2026).

Type in all cases: cell-based, mouse
In one series the test system is WT MEF EVs. As to the kind of experiment: Quantitative LC-MS/MS proteomics of EVs from ISRIB-treated WT MEF cultures. The note with it: Directionality of protein change in MEFs EV dataset in WT derived MEFs treated with ISRIB.
The test system of series [1] is DYT-TOR1A MEF EVs. Description: Quantitative LC-MS/MS proteomics of EVs from drug-treated DYT-TOR1A MEF cultures (ritonavir, salubrinal).
The subject of series [2] is DYT-TOR1A MEF EVs. Description: Quantitative LC-MS/MS proteomics of MEF EVs, DYT-TOR1A genotype vs WT. The note with it: Directionality of protein change in MEFs EV dataset between WT and DYT1 derived MEFs.

B1: Sec31a (protein, UniProt Q3UPL0 1-1230, looked up)
Protein transport protein …: MKLKEIDRTAMQAWSPAQNHPIYLATGTSAQQLDATFSTNASLEIFELDLSDPSLDMKSCATFSSSHRYHKLIWGPHKMDSKGDVSGVLIAGGENGNIILYDPSKIIAGDKEVVIAQKDKHTGPVRALDVNIFQTNLVASGANESEIYIWDLNNFATPMTPGAKTQPPEDISCIAWNRQVQHILASASPSGRATVWDLRKNEPIIKVSDHSNRMHCSGLAWHPDVATQMVLASEDDRLPVIQMWDLRFASSPLRVLENHARGILAVAWSMADPELLLSCGKDAKILCSNPNTGEVLYELPTNTQWCFDIQWCPRNPAVLSAASFDGRISVYSIMGGSIDGLRQKQVDKLSSSFGNLDPFGTGQPLPPLQIPQQSAQHSIVLPLKKPPKWIRRPVGASFSFGGKLVTFESVAVPLQQGAEQQRRQPVFISQVVTEKDFLNRSAQLQHAVQSQGFIGYCQKKIEASQTEFEKNVWSFLKVNFEEDSRGKYLELLGYRKEDLGQKIALALNKVDGPDVALKDSDQVAQSDGEESPAAEEQLLGERIKEEKQECDFLPSAGGTFNISVSGDIDGLITRALLTGNFESAVDLCLHDNRMADAIILAIAGGQELLAQTQKKYFAKSQSKITRLITAVVMKNWREIVESCDLKNWREALAAVLTYAKPDEFSALCDLLGTRLEREGDSLLRTQACLCYICAGNVERLVACWTKAQDGSSPLSLQDLIEKVVILRKAVQLTQALDTNTVGALLAEKMSQYASLLAAQGSIAAALAFLPDNTNQPNIVQLRDRLCKAQGKPVSGQESSQSPYERQPLSKGRPGPVAGHSQMPRVQTQQYYPHGENPPPPGFIMQGNVIPNPAAPLPTAPGHMPSQLPPYPQPQPYQPAQQYSFGTGGAAAYRPQQPVAPPASNAYPNTPYISPVASYSGQPQMYTAQQASSPTSSSAASFPPPSSGASFQHGGPGAPPSSSAYALPPGTTGTPPAASELPASQRTENQSFQDQASILEGPQNGWNDPPALNRVPKKKKMPENFMPPVPITSPIMNPSGDPQSQGLQQQPSTPGPLSSHASFPQQHLAGGQPFHGVQQPLAQTGMPPSFSKPNTEGAPGAPIGNTIQHVQALPTEKITKKPIPEEHLILKTTFEDLIQRCLSSATDPQTKRKLDDASKRLEFLYDKLREQTLSPTIINGLHSIARSIETRNYSEGLSVHTHIVSTSNFSETSAFMPVLKVVLSQASKLGV
As for B1, the “WT + ISRIB/WT” value with WT MEF EVs was “DOWN”. The “DYT1/DYT1 + RTV” value in the series on DYT-TOR1A MEF EVs [1] (Directionality of protein change in MEFs EV dataset in DYT1 derived MEFs treated with Ritonavir) is on record as “DOWN”. Further, in the series on DYT-TOR1A MEF EVs [1] (Directionality of protein change in MEFs EV dataset in DYT1 derived MEFs treated with salubrinal), the “DYT1/DYT1 + Sal” value was “DOWN”. The “RTV Corrective Direction” value in the series on DYT-TOR1A MEF EVs [1] (Ritonavir, was treatment in MEF's in the direction of WT-like?) is given as “Yes”. In addition, the “Sal Corrective Direction” value in the series with DYT-TOR1A MEF EVs [1] (Salubrinal, was treatment in MEF's in the direction of WT-like?) is listed as “Yes”. The DYT1/WT result in the series with DYT-TOR1A MEF EVs [2] was “DOWN”.
